How the values were obtained:
[1] = Serum, transdermal and saliva samples from human subjects before, during and after exercise
Method: (§1) Sodium lauryl sulfate (40%) and either a commercial ultrasound conductive gel (Aquasonic, Parker Lab., NJ 07004, USA) or a 10% ethanol gel (the two gels were alternated in use) are employed. These gels are designated SLS-UG and SLS-EG respectively herein. Collected SLS-UG and SLS-EG are assayed as for blood. Saliva was divided into two samples. The first sample is stored at −20° C. and assayed as for blood. The second sample is assayed at the time of experimentation using the apparatus and immunosensors described above.
(§2) Student t tests, ANOVA or Wilcoxon test for paired samples are made as appropriate. Statistical significance is taken at P≦0.05 level. For analysis across the exercise stress, data is grouped into pre, during and post exercise values as actual sample times relative to the exercise for transdermal and blood obtained values. For pre, during and post exercise grouping of saliva samples, a 20-min lag was allowed relative to blood and transdermal values in sheep and a 30-min lag in human subjects.
Ten human volunteers (males aged 19-23, body weights 85-103 kg) were seated at 09:30 h. During the experiment, they were held at a room temperature of 20-22° C. An initial 1 min burst of ultrasound, as for the sheep (above), was made on the volar surface of the forearm, following application of SLS-EG mix. […]

[2] = Serum, transdermal and saliva samples from sheep before, during and after exercise
Method: as §1, §2
In the remaining 10 sheep, experimentation took place on three separate days, each 3 days apart. On days of experimentation, animals were penned as above and the jugular vein of the animal was catheterised. Animals were left to rest for 50 min and then a single ultrasound application applied for 1 min as above. […] A series of electrosonophoresis collections were made concurrently with blood collection from the jugular vein, every 5 min for a further 1 h. Saliva samples were collected on every second blood sample (i.e. every 10 min). At completion of this time, a human shepherd, intermittently for 30 min, then ran the animals around a paddock. During this 30 min, each animal was briefly restrained manually and sampled on all three parameters every 10 min (i.e. three samples repeated three times). At the end of this period, animals were repenned and rested for 10 min, and a further saliva collection was made. Following this saliva collection for a further 1-h period, collection as above, prior to exercise, was repeated. […]

Substance: Insulin: endogenous hormone analyte measured in serum and exudate
- Measurable in transdermal exudates [1]: measurable quantities
- Change with exercise ([1]; across exercise and recovery): decreased
- Measurable in saliva [2]: not detectable
- Measurable in transdermal exudates [2]: measurable
- Change with the exercise ([2]; P≦0.05 for rise and decrease): decreased
